# Data as given in PubChem BioAssay AID1259254 (NCATS, 2017).
# Assay: 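Genome-wide screen for genes that prevent DNA re-replication in cancer cells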 (primary screen)
# Cell system: human HCT116 colorectal cancer cells
# Reagent: single siRNA against human genes
# Time to read-out: 3 days
# Detection: 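Nuclei stained with Hoechst and imaged; cell-cycle phase assigned by DNA content; G2 share scaled per plate, non-targeting siRNA 0%, GMNN siRNA 100%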
# Scale: G2 robust z-score and G2 cells, % of GMNN control: higher = more G2 cells, more excess DNA replication; raw share of cells in G2: higher = larger share of cells with G2 DNA content
# Hit rule: 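Active siRNAs have a G2 robust z of 5 or more median absolute deviations over the median, which in these data means about 38% or higher of GMNN control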
# The whole screen tested about 59,000 reagents; this is a random part of them. Of all reagents, about 1,550 (2.6%) got an active call. 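G2 share is only a proxy for re-replication; each gene was hit by three separate siRNAs, and active genes were retested.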 Raw values vary from plate to plate and are shown uncorrected. A number with no mark means an inactive call. The numbers tell different reagents against one gene apart. Not stated in the record: the amount of reagent.
gene,siRNA no.,G2 robust z-score,"G2 cells, % of GMNN control",raw share of cells in G2 (%)
CCDC28B,1,0.766,8.36,4.9
CCDC28B,2,-1.12,-4.89,2.45
CCDC28B,3,3.94,30.7,18.4
CCDC160,1,0.173,4.18,5.42
CCDC160,2,0.138,3.94,4.98
CCDC160,3,2.21,18.5,11.6
MFSD1,1,-0.143,1.96,5.04
MFSD1,2,-1.04,-4.34,2.65
MFSD1,3,-0.127,2.07,6.5
RNF148,1,2.33,19.4,14.3
RNF148,2,-1.71,-9.03,1.43
RNF148,3,-0.269,1.07,4.68
TRDMT1,1,-0.512,-0.632,4.76
TRDMT1,2,-0.269,1.08,4.47
TRDMT1,3,-0.546,-0.871,4.65
PGS1,1,1.1,10.7,9.1
PGS1,2,-0.438,-0.111,3.16
PGS1,3,-0.418,0.0246,5.21
TMPRSS11B,1,0.0297,3.18,6.94
TMPRSS11B,2,2.17,18.3,10.5
TMPRSS11B,3,-0.62,-1.4,3.74
NKX2-1,1,-0.54,-0.835,4.5
NKX2-1,2,-0.801,-2.67,4.32
NKX2-1,3,-0.425,-0.023,4.37
BTN2A2,1,0.931,9.52,6.92
BTN2A2,2,0.899,9.29,9.73
BTN2A2,3,-0.297,0.878,6.82
ACSL4,1,0.875,9.12,8.55
ACSL4,2,2.18,18.3,12.2
ACSL4,3,0.0757,3.5,4.9
NDUFA3,1,0.00272,2.99,4.18
NDUFA3,2,-0.644,-1.56,4.76
NDUFA3,3,0.541,6.77,8.15
SERPINA13P,1,0.846,8.92,9.76
SERPINA13P,2,0.881,9.16,8.54
SERPINA13P,3,1.57,14,9.4
DUSP9,1,-0.34,0.572,4.98
DUSP9,2,-0.85,-3.02,3.39
DUSP9,3,0.116,3.78,4.63
TTC29,1,-0.463,-0.293,4.01
TTC29,2,0.145,3.99,4.64
TTC29,3,-0.841,-2.95,1.51
ACAP3,1,0.71,7.96,9.37
ACAP3,2,-0.587,-1.16,4.04
ACAP3,3,-1.1,-4.81,2.9
ADCY1,1,-0.664,-1.7,4.14
ADCY1,2,1.11,10.8,8.01
ADCY1,3,-1.35,-6.55,2.74
